Several values for one entry are separate records, joined by “and”; a condition that tells them apart may be missing. Equal values may be shown once. The list shows a part of the results. The main result of the screen is listed elsewhere. These columns were measured beside it and carry no call. For part of these data: The list favours compounds with an active or inconclusive main result. For part of these data: Words in brackets tell the shape of the fitted curve; partial curves, single points and poor fits give uncertain potencies.

Protein sequences, listed by entry. Tags and fused reporters are not part of them. Lines headed by an entry give the natural chain unless they say otherwise; changes in a name come on top.
UniProt P40261: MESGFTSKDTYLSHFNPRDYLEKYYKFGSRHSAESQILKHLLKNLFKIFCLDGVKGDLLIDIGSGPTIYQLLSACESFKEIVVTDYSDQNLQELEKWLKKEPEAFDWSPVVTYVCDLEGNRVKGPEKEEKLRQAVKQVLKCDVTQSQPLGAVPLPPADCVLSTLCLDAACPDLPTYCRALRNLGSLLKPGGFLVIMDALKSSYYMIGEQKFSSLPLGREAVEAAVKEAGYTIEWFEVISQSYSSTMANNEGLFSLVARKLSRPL
UniProt P11086: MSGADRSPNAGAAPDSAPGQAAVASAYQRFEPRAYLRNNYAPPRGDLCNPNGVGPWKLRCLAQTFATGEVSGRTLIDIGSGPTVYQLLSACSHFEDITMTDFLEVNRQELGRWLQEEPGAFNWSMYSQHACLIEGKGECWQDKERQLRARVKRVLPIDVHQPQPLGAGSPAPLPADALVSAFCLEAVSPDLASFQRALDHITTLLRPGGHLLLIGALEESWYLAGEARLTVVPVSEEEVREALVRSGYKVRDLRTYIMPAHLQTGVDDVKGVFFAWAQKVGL

The nature of assay [1]: A High-Content qHTS Against Drug Library for the Identification of Small Molecules that Inhibit DYT1 Early Onset Primary Dystonia-Associated Cell Pathology (AID 1645839). Conditions: HEK293 Flp-In EGFP-delE TorsinA, punctate imaging, 48 h; measured here: cell count cytotoxicity. In outline:
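Readout: %pathology, the punctate EGFP-TorsinA distribution from imaging, as the primary channel and cell count as the toxicity counterscreen. HEK293 Flp-In cells expressing delE TorsinA were induced with tetracycline and treated with compound for 48 h.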
In general terms: Quantitative high-throughput screening tests each substance at several concentrations.

Assay [2] can be described thus: qHTS assay for small molecule antagonists of androgen receptor signaling (AID 588516). The settings on record: AR-UAS-bla HEK293, beta-lactamase ratio, antagonist mode, 16 h. In outline: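 Antagonist-mode qHTS: inhibition of R1881 (10 nM)-driven beta-lactamase expression in GripTite HEK 293 cells is measured after 16 h; values are Hill-derived IC50s normalized between R1881 and DMSO wells.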

Assay [3] is described as follows: qHTS assay for small molecule antagonists of peroxisome proliferator-activated receptor delta signaling (AID 588535).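 Note: cells co-treated with a PPAR-delta agonist as stimulator during compound exposure.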 Conditions: HEK293T PPARd-UAS-bla, beta-lactamase FRET ratio, 18 h; 460 nm channel. In outline:
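Reporter: UAS-bla under PPAR-delta response element, HEK293T host. Medium: 2% charcoal/dextran FBS. Dosing: titration, 18 hrs, 37 C. Detection: CCF4, 2 hrs RT, 405 ex/460 and 530 em.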

The nature of assay [4]: qHTS assay for small molecule antagonists of vitamin D receptor signaling (AID 588541). Conditions: HEK293T VDR-UAS-bla, beta-lactamase ratio, antagonist mode; measured here: W460 blue channel (cell viability).
Assay [5] can be described thus: qHTS assay for small molecule agonists of retinoid X receptor alpha signaling (AID 588544). Conditions: HEK293T RXRa-UAS-bla, beta-lactamase reporter, 18 h; 530 nm emission.
A short description of assay [6]: qHTS assay for small molecule antagonists of retinoid X receptor alpha signaling (AID 588546).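 Note: cells stimulated with 9-cis-retinoic acid as agonist; % is set by controls: 0 for no effect and ±100 for the full control effect.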 The settings on record: HEK293T RXRa-UAS-bla, beta-lactamase ratio, antagonist mode; measured here: W530 green channel, cytotoxicity proxy. In outline: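 Beta-lactamase reporter inhibition, read as CCF4 fluorescence ratio (ex 405, em 460/530 nm) after 2 h at RT. HEK293T UAS-bla cells, 2500/well, were stimulated with 9-cis-RA at 500 or 100 nM final alongside test compound for 18 h at 37 C.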

Assay [7] in a line: qHTS Assay for Modulators of Human Peripheral Myelin Protein 22 (PMP22) Expression/Activity (AID 1967). The settings on record: Cell-based PMP22 reporter, dual-color luciferase ratio. In outline: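 Engineered MSC80 cells, Pmp22-promoter green and EF-alpha red luciferase reporters; 24h compound treatment at 37 °C. Concentration-response fits on green, red and ratio signals, each overlap-corrected, with %Activity normalized to untreated wells.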

The nature of assay [8]: qHTS assay for small molecule antagonists of glucocorticoid receptor signaling (AID 588533). Conditions: HeLa MMTV-bla, GRE beta-lactamase ratio, antagonist mode, 18 h; measured here: W530 channel AC50.
Assay [9] is described as follows: qHTS drug screen for cell cycle checkpoint inhibitors in PARPi-resistant BRCA-mutant ovarian cancer cell lines. (AID 1963452). Conditions: PEO1/OlaR viability, CellTiter-Glo luminescence, 96 h. The method, boiled down:
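PEO1, PEO4 and PEO1/OlaR ovarian cancer cells, 600 per well, exposed 96 h at 37C to a dilution series. Viability read by CellTiter-Glo luminescence, normalized to DMSO and empty wells; activity summarized as Z-AUC.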

Assay [10] in a line: qHTS for identification of novel therapeutic agents for treatment of microphthalmiaassociated transcription factor (MiT) renal cell carcinoma (RCC) (AID 1963991). Conditions: CellTiter-Glo, 48 h; for z-score: stronger effect = lower value. The method, boiled down:
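Curves over 11 concentrations were fitted to CellTiter-Glo luminescence, scaled between empty wells (0%) and DMSO (100%) viability. Cells were UOK109, UOK124 and UOK145 TFE3-fusion RCC lines at 500/well, exposed 48 hours at 37 C.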

A short description of assay [11]: NCATS anti-infectives library activity on the primary C. elegans qHTS viability assay (AID 1745855). Conditions: C. elegans worm area imaging. In outline: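 Viability read-out is GFP fluorescence of PE254-GFP-FLuc C. elegans, measured by laser cytometry (488 nm) at day 0, 3 and 7. Ten L1 worms per well were incubated 7 days at 21 °C with compounds and bacterial capsules in S medium.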

Assay [12] has as its target Nicotinamide N-methyltransferase (Homo sapiens) (UniProt P40261). In words: Confirmatory Screen for Target Class Profiling of Small Molecule Inhibitors of Methyltransferases (AID 1745852). The settings on record: MTase-Glo luminescence, SAH detection, recombinant enzyme; measured here: NNMT inhibition potency.
Assay [13] deals with Phenylethanolamine N-methyltransferase (Homo sapiens) (UniProt P11086). The assay is described as above. The settings on record: MTase-Glo luminescence, SAH detection, recombinant enzyme; measured here: PNMT inhibition potency.
[14] abbreviates: measured here: W460 blue channel fit.
The mark [15] stands for this setting: measured here: W530 green channel, cytotoxicity/artifact.
Where [16] appears, read: measured here: green reporter channel AC50, mouse Pmp22 promoter in mouse Schwann cells.
The mark [17] stands for this setting: TFE3-RCC UOK109 viability, measured here: UOK109 Z-AUC.
The mark [18] stands for this setting: TFE3-RCC viability, measured here: UOK124 Z-AUC.
Setting [19] is: TFE3-RCC viability, measured here: UOK124 cell viability.
Where [20] appears, read: TFE3-RCC viability, measured here: UOK145 Z-AUC.
The mark [21] stands for this setting: day 7, measured here: worm number.
Where [22] appears, read: day 7, measured here: worm area, day 3.
The mark [23] stands for this setting: day 7, measured here: worm number, day 3.

`CN1CCC(N(Cc2ccccc2)c2ccccc2)CC1`: the AC50 in [1] is 22.4 µM [falling, partial curve, poor fit].

Take `CC(C)=CCN1CC[C@@]2(C)c3cc(O)ccc3C[C@@H]1[C@@H]2C`: the AC50 in assay [1] was 31.6 µM [falling, single point].

`COc1ccc(OC)c(CC(C)N)c1` (stereo not drawn): the AC50 in [1] was 70.8 µM [falling, single point].

Turning to `Nc1ccc([N+](=O)[O-])cc1`, the AC50 was 50.1 µM [falling, partial curve, poor fit] in assay [2] (setting [14]) and 14.1 µM [falling, partial curve] in assay [1].

Turning to `CCOC(C(=O)OCCN(C)C)(c1ccccc1)c1ccccc1`, the AC50 in assay [1] was 7.08 µM [falling, partial curve, poor fit].

As to `O=C(CCl)c1ccc(Cl)cc1Cl`, the AC50 in assay [2] (setting [14]) was 39.8 µM [falling, partial curve]; in [2] (setting [15]), 12.6 µM [rising, full curve, poor fit]; in assay [4], 17.8 µM [falling, full curve, poor fit]; in assay [1], 3.55 µM [falling, single point]. The max response in assay [3] is -100%; in [5], 103%; in assay [6], 74.2%.

For `Cc1ccc([N+](=O)[O-])[c]2c1[O][Hg]2`, the AC50 in assay [1] is 1.26 µM [falling, full curve, poor fit].

Regarding `NCC(O)c1cc(O)c(O)cc1F` (stereo not drawn), the AC50 in [7] (setting [16]) is 84.9 µM [falling, single point].

Take `CN(N=O)c1ccc(O)c(O)c1`: the AC50 in assay [7] (setting [16]) was 95.3 µM [falling, single point].

Regarding `CCCN(CCC)CCc1ccc(O)c(O)c1`, the AC50 in assay [7] (measured here: red reporter channel AC50, EF-alpha promoter control reporter in MSC80 mouse Schwann cells) was 75.7 µM [falling, partial curve].

On to `C[C@H]1CCCC(=O)CCC/C=C/c2cc(O)cc(O)c2C(=O)O1`, for which the AC50 was 25.1 µM [falling, full curve, poor fit] and 25.1 µM [falling, partial curve, poor fit] in assay [2] (setting [14]); 5.01 µM [rising, full curve, poor fit] in [2] (setting [15]).

Consider `CC(C)(C)CC(C)(C)c1ccc(O)cc1`, for which, in assay [8], the AC50 is 50.1 µM [falling, single point].

For the compound `CC1(C)C(C=C(Cl)Cl)C1C(=O)OC(C#N)c1cccc(Oc2ccccc2)c1` (stereo not drawn), the AC50 in assay [4] was 14.1 µM [falling, partial curve, poor fit].

In the case of `Cc1[nH]nc2ccc(-c3cncc(OC[C@@H](N)Cc4c[nH]c5ccccc45)c3)cc12`, the AC50 in assay [9] (measured here: PEO1 parental viability) is 389 nM [falling, full curve]; in [9] (measured here: PEO4 viability), 138 nM [falling, full curve]; in assay [10] (setting [19]), 2.35 µM [falling, partial curve]; in [10] (TFE3-RCC viability, measured here: UOK145 cell viability), 0.935 µM [falling, full curve]. Besides, the figures for the z-score in assay [10] (setting [17]), in [10] (setting [18]) and in assay [10] (setting [20]) were 0.00898, 0.134 and -0.932, respectively.

Regarding `O=C(Oc1ccc([N+](=O)[O-])cc1)N1CCC(C(O)(c2ccc3c(c2)OCO3)c2ccc3c(c2)OCO3)CC1`, the AC50 was 18.3 µM [falling, partial curve] in [11] (setting [21]); 25.8 µM [falling, single point] in assay [11] (setting [22]); 25.8 µM [falling, single point] in assay [11] (setting [23]); 33.2 µM [falling, partial curve, poor fit] in [10] (setting [19]). Also, the z-score is -0.402 in assay [10] (setting [17]), 0.114 in assay [10] (setting [18]) and 0.149 in [10] (setting [20]).

For the compound `O=S(=O)(CC1CS1)c1ccc(Oc2ccccc2)cc1` (stereo not drawn), the AC50 in [11] (setting [22]) is 0.0816 µM [falling, full curve, poor fit]; in [11] (setting [23]), 1.83 µM [falling, full curve, poor fit]; in assay [9] (measured here: PEO4 viability), 24500 nM [falling, single point]; in assay [10] (setting [19]) it was 18.7 µM [falling, partial curve]. In addition, the figures for the z-score in [10] (setting [17]), in assay [10] (setting [18]) and in [10] (setting [20]) were 0.808, -0.065 and 0.726, respectively.

With `[Hg+][c]1ccccc1`, the AC50 in assay [11] (setting [21]) was 1.29 µM [falling, partial curve, poor fit]; in assay [11] (setting [22]) it was 1.45 µM [falling, partial curve, poor fit]; in assay [11] (setting [23]), 14.5 µM [falling, partial curve, poor fit].

As to `C1=C2CCCN[C@H]2[C@@H]2C[C@H]1[C@H]1CCCCN1C2`, the AC50 in assay [11] (setting [23]) is 9.16 µM [rising, partial curve, poor fit].

Regarding `CNC1CCc2ccccc21` (stereo not drawn), the IC50 in assay [12] was 87.9 µM [falling, single point]; in assay [13], 49.4 µM [falling, partial curve].

What is called AC50 is the midpoint of the concentration-response curve, whichever way the signal moves. One may read the IC50 as the midpoint of a concentration-inhibition curve.

Source of the values: PubChem BioAssay (NCATS).
